Data published in article PMC10545698.

The chains behind the UniProt entries cited, without tags or fusion partners.
UniProt Q9UHI6: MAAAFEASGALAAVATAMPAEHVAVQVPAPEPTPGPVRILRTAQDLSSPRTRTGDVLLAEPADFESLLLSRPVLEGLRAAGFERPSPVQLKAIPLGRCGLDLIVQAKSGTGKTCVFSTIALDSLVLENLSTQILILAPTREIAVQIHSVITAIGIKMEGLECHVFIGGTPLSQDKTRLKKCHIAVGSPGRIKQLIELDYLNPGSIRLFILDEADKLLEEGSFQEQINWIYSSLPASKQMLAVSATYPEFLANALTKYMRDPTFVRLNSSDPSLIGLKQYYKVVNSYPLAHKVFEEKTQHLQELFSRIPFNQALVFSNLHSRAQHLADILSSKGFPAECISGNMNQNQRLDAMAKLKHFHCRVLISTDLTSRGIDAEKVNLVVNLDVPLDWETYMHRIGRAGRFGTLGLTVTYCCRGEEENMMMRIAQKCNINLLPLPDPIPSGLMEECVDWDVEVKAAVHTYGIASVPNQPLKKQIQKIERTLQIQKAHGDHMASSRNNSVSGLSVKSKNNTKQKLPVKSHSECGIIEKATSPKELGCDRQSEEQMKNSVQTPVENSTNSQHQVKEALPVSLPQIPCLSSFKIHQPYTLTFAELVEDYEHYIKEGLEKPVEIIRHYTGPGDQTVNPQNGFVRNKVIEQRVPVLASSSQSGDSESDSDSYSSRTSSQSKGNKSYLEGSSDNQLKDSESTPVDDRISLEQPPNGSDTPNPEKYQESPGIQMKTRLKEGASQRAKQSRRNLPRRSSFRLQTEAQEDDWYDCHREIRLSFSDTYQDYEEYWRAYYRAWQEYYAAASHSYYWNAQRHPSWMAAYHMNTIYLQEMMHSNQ

Target: T1, WD repeat domain 4 (WDR4) (human (endogenous in UM-UC-3 and 5637)) (UniProt P57081)
T1 sequence: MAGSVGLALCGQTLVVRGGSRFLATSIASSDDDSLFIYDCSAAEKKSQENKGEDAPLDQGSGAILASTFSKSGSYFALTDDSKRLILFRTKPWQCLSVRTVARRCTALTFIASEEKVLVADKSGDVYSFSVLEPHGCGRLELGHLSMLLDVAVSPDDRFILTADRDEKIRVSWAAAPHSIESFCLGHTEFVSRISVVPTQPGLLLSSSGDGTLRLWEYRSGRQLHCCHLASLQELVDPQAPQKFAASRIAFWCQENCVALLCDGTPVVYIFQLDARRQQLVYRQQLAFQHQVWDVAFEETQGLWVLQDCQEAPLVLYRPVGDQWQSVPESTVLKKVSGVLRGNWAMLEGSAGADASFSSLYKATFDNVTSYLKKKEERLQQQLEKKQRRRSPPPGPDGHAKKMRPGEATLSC
Assay: affinity purification with mass spectrometry; endogenous WDR4 immunoprecipitated with an anti-WDR4 antibody from UM-UC-3 and 5637 cell lysates (IgG as control, Protein A/G magnetic beads); eluted proteins identified by LC-MS/MS

binding: binds
Substance: DEAD-box helicase 20 (DDX20) (from UniProt Q9UHI6 1-824)

Results are given in words; binding and its absence hold for the method and conditions named. In cells and extracts the contact can be indirect. Here binding means that the protein was enriched with, or labelled near, the bait; the list need not be complete.
